Primary screen of a compound library

Source: ChEMBL document CHEMBL3988442, “University of Dundee, Small-Polar-MMV Screening Library” (2021).

Mtb glucose medium: 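Growth of Mycobacterium tuberculosis over 3 days (7H9 medium with glucose and tyloxapol); the read-out is not stated. Compounds at 50 µM. Direction is inferred from retests: higher values go with more growth inhibition. Of about 69,000 compounds tested this way, about 760 (1.1%) reached 50% or more in at least one test.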
Mtb cholesterol medium: 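Whole-cell growth test on Mycobacterium tuberculosis, read after 4 days in a medium based on cholesterol and the lipid DPPC; the read-out is not stated. Concentration: 50 µM. Direction is inferred from retests: higher values go with more growth inhibition. Of about 69,000 compounds tested this way, about 370 (0.54%) reached 50% or more in at least one test.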

Results are given as percent effect. How 0% and 100% were set is not recorded. Most values in the screen are low, and negative values occur. This is an unselected part of the compounds tested. Two or more numbers in one place are separate tests of the same structure; such repeats can differ widely.

{"smiles": "CN(c1cccnc1N1CCCC1)S(=O)(=O)c1cnn(C)c1", "Mtb glucose medium": -1.017, "Mtb cholesterol medium": -1.633}
{"smiles": "Cc1noc(C)c1S(=O)(=O)N1C[C@@H](C(=O)O)[C@H](c2ccccn2)C1", "Mtb glucose medium": -4.932, "Mtb cholesterol medium": -27.05}
{"smiles": "CN(C)C(Cn1ccnc1-c1ccccc1C(=O)O)c1ccccc1Cl", "stereo": "stereo not drawn", "Mtb glucose medium": -28.41, "Mtb cholesterol medium": -32.66}
{"smiles": "O=C(c1nn[nH]c1Nc1ccc(Cl)cc1)N1CCSCC1", "Mtb glucose medium": 11.45, "Mtb cholesterol medium": 10.02}
{"smiles": "Cc1ccc(C(=O)N2CCc3ncc(Cn4cccn4)n3CC2)o1", "Mtb glucose medium": -8.926, "Mtb cholesterol medium": -27.83}
{"smiles": "Cc1ncc2c(n1)CN(Cc1nnc(Cc3ccccc3)o1)CC2", "Mtb glucose medium": -2.018, "Mtb cholesterol medium": 6.3}
{"smiles": "CNc1cccc(C2CCCN(C(=O)c3cccnc3)C2)n1", "stereo": "stereo not drawn", "Mtb glucose medium": -2.139, "Mtb cholesterol medium": -22.98}
{"smiles": "COCc1csc(NC(=O)N2CCC(Cc3cnn(C)c3)C2)n1", "stereo": "stereo not drawn", "Mtb glucose medium": 3.282, "Mtb cholesterol medium": -12.88}
{"smiles": "CN(CCCNC(=O)c1ccccc1F)CC(F)(F)F", "Mtb glucose medium": -1.701, "Mtb cholesterol medium": 24.57}
{"smiles": "COc1ccc(-c2nc(CN3CCOCS3(=O)=O)c(C)o2)cc1", "Mtb glucose medium": 0.02824, "Mtb cholesterol medium": -32.44}
{"smiles": "COCc1c(C(=O)NC2CCCC2)nnn1-c1ccc(C)cc1", "Mtb glucose medium": 4.908, "Mtb cholesterol medium": -26.94}
{"smiles": "COCc1nc(CN2CCN(c3ccc(OC)cc3)C(=O)C2C)no1", "stereo": "stereo not drawn", "Mtb glucose medium": -15.55, "Mtb cholesterol medium": -3.903}
{"smiles": "CO[C@H]1CCN(Cc2nccs2)C[C@@H]1Cc1ccccc1", "Mtb glucose medium": 55.46, "Mtb cholesterol medium": 10.5}
{"smiles": "[H][C@@]12OCCN(C(=O)c3ccc(C)nc3)[C@@]1([H])CC[C@@H]2OC", "Mtb glucose medium": "36.51 & 2.365", "Mtb cholesterol medium": -15.63}
{"smiles": "CCCN(C)CCC(=O)N1CCCC1Cn1cccn1", "stereo": "stereo not drawn", "Mtb glucose medium": -22.87, "Mtb cholesterol medium": -16.57}
{"smiles": "CNC(=O)C1CN(C)CCN(C(=O)CCn2nnc3ccccc32)C1", "stereo": "stereo not drawn", "Mtb glucose medium": 7.228, "Mtb cholesterol medium": "-4.825 & -2.858"}
{"smiles": "NC(=O)CCn1ccc(NC(=O)c2ccc(OCC3CC3)cc2)n1", "Mtb glucose medium": -35.28, "Mtb cholesterol medium": "-6.925 & -2.534"}
{"smiles": "O=C(NCC1CCOCC1)c1cc(-c2ccc3c(c2)CCO3)n[nH]1", "Mtb glucose medium": 15.69, "Mtb cholesterol medium": -24.92}
{"smiles": "CCN(C(=O)Cc1ccc(NCc2ncc[nH]2)cc1)c1ccccc1", "Mtb glucose medium": 33.57, "Mtb cholesterol medium": 15.85}
{"smiles": "CC(C)CNC(=O)c1nn(C)c(NC(=O)Cc2ccccc2)c1F", "Mtb glucose medium": "3.104 & -6.321", "Mtb cholesterol medium": 9.394}
{"smiles": "[H][C@]12CCN(c3cc(OC)ncn3)[C@@]1([H])C[C@H](C(=O)NC(C)C)O2", "Mtb glucose medium": -36.06, "Mtb cholesterol medium": -25.48}
{"smiles": "O=C(O)C(F)(F)F.[H][C@@]12CCN(c3cnccn3)C[C@]1([H])CN(C(=O)CC(C)C)C2", "Mtb glucose medium": 10.62, "Mtb cholesterol medium": "-29.18 & -3.108"}
{"smiles": "CS(=O)(=O)NCc1ncn2c1CN(Cc1cccs1)CCC2.O=C(O)C(F)(F)F.O=C(O)C(F)(F)F", "Mtb glucose medium": 9.396, "Mtb cholesterol medium": -4.821}
{"smiles": "O=C1CC(c2ccc(C(=O)O)cc2)c2ncn(-c3cccc(Cl)c3)c2N1", "stereo": "stereo not drawn", "Mtb glucose medium": -15.76, "Mtb cholesterol medium": "-8.536 & 9.786"}
{"smiles": "CC(=O)N1CCCC(C(=O)NCCc2ccc(F)c(Br)c2)C1", "stereo": "stereo not drawn", "Mtb glucose medium": 3.318, "Mtb cholesterol medium": 1.4}
{"smiles": "Cc1nc(-c2ccco2)ccc1C(=O)NCC(=O)N1CCCCC1", "Mtb glucose medium": 10.13, "Mtb cholesterol medium": -4.293}
{"smiles": "CC(=O)N1CCN(C(=O)NCCCN(C(C)C)S(C)(=O)=O)CC1", "Mtb glucose medium": -29.94, "Mtb cholesterol medium": -14.15}
{"smiles": "O=C(NCC1(O)CCc2ccccc2C1)c1cccs1", "stereo": "stereo not drawn", "Mtb glucose medium": 31.48, "Mtb cholesterol medium": 22.74}
{"smiles": "[H][C@@]12CNCC[C@]1(O)CCN(c1cncc(C(=O)N3CCCC3)n1)C2", "Mtb glucose medium": -0.4138, "Mtb cholesterol medium": "6.115 & -3.267"}
{"smiles": "Cc1nc(Nc2ncccn2)cc(C2CCCN2CC(C)C)n1", "stereo": "stereo not drawn", "Mtb glucose medium": 4.637, "Mtb cholesterol medium": -13.94}
{"smiles": "Cc1cc(C(=O)N2C[C@H](CO)C[C@H](CN3CCOCC3)C2)cnc1C", "Mtb glucose medium": "0.4099 & -19.05", "Mtb cholesterol medium": -1.521}
{"smiles": "CCS(=O)(=O)c1ccc2oc([C@H]3CCN(Cc4ccccc4)C3)nc2c1", "Mtb glucose medium": "0.4861 & -6.342", "Mtb cholesterol medium": 1.569}
{"smiles": "CCc1c(C)sc2nc3n(CC(N)=O)nc(SC)n3c(=O)c12", "Mtb glucose medium": 22.7, "Mtb cholesterol medium": 4.666}
{"smiles": "Cc1cc(C)cc(-c2cc(C3CCOC3)c(C#N)c(N)n2)c1", "stereo": "stereo not drawn", "Mtb glucose medium": -23.5, "Mtb cholesterol medium": -22.56}
{"smiles": "NC(=O)CSCC(=O)NCC1CCCC1", "Mtb glucose medium": -6.116, "Mtb cholesterol medium": "3.851 & -0.8295"}
{"smiles": "Cc1ncsc1C(=O)N1CCCC(n2cncn2)C1", "stereo": "stereo not drawn", "Mtb glucose medium": -12.54, "Mtb cholesterol medium": 7.843}
{"smiles": "CCOc1ncccc1NC(=O)c1ccc(C)s1", "Mtb glucose medium": 33.15, "Mtb cholesterol medium": 16.56}
{"smiles": "O=C(Cc1cccs1)NC1CCN(c2cccc(F)c2)CC1", "Mtb glucose medium": "5.533 & 3.271", "Mtb cholesterol medium": -6.391}
{"smiles": "O=C(O)C(F)(F)F.O=C(O)c1c(-c2cncnc2)ncc2c1CCN(CC1CCOC1)C2", "stereo": "stereo not drawn", "Mtb glucose medium": -24.73, "Mtb cholesterol medium": -26.97}
{"smiles": "Nc1cc(CCC2CN(Cc3ccc(C(=O)O)cc3)CCO2)ccn1", "stereo": "stereo not drawn", "Mtb glucose medium": -25.12, "Mtb cholesterol medium": -21.15}
{"smiles": "O=C(NCCNc1ncccn1)NCc1cccc(OC(F)F)c1", "Mtb glucose medium": -4.907, "Mtb cholesterol medium": -11.13}
{"smiles": "CN(Cc1cccc(F)c1)C(=O)c1cc2c([nH]c1=O)CCCC2=O", "Mtb glucose medium": -10.13, "Mtb cholesterol medium": -18.93}
{"smiles": "c1csc(-c2nc(CN3CCCCC3Cn3cncn3)cs2)c1", "stereo": "stereo not drawn", "Mtb glucose medium": 22.4, "Mtb cholesterol medium": 12.16}
{"smiles": "Cc1cnc(CNC(=O)CC2CCc3ccccc32)cn1", "stereo": "stereo not drawn", "Mtb glucose medium": -14.29, "Mtb cholesterol medium": -2.943}
{"smiles": "[H][C@@]12COC[C@@H](Cc3nnc(C)o3)[C@]1([H])CN(c1cc(OC)ncn1)C2", "Mtb glucose medium": -11.34, "Mtb cholesterol medium": -16.32}
{"smiles": "Cn1ccnc1CN1CCC(Cc2ccccn2)CC1", "Mtb glucose medium": -14.45, "Mtb cholesterol medium": -19.27}

The first 4 entries again:

{"smiles": "CN(c1cccnc1N1CCCC1)S(=O)(=O)c1cnn(C)c1", "Mtb glucose medium": -1.017, "Mtb cholesterol medium": -1.633}
{"smiles": "Cc1noc(C)c1S(=O)(=O)N1C[C@@H](C(=O)O)[C@H](c2ccccn2)C1", "Mtb glucose medium": -4.932, "Mtb cholesterol medium": -27.05}
{"smiles": "CN(C)C(Cn1ccnc1-c1ccccc1C(=O)O)c1ccccc1Cl", "stereo": "stereo not drawn", "Mtb glucose medium": -28.41, "Mtb cholesterol medium": -32.66}
{"smiles": "O=C(c1nn[nH]c1Nc1ccc(Cl)cc1)N1CCSCC1", "Mtb glucose medium": 11.45, "Mtb cholesterol medium": 10.02}